{"source": "PubChem BioAssay AID587", "about": "(National Center for Advancing Translational Sciences (NCATS), 2007)", "note": "The campaign covered roughly 59,000 compounds. About 35 (0.06%) were called active. Inconclusive means that the source gave no clear call. Such entries were picked first, then a sample of the others. Cut-off read from the data, not from the text of the source: active = max dye-equivalent concentration above about 10 nM; inconclusive = between about 1.1 nM and that limit; inactive = weaker than that."}
{"assay": "qHTS Assay for Spectroscopic Profiling in Texas Red Spectral Region", "details": "Compound fluorescence, Texas Red channel, 547/618 nm; stronger effect = higher value", "method_in_brief": "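qHTS profiling of intrinsic compound fluorescence; 100 mM Tris pH 8.0; 15 min RT; ex 547 / em 618 nm; response expressed as Texas Red dye-equivalent concentration from six-point plate standard.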"}
{"smiles": "Fc1ccccc1N1CCN(Cc2nc(-c3ccccc3)no2)CC1", "max dye-equivalent concentration": "inconclusive: 1.5 nM"}
{"smiles": "Cc1ccc(-c2nc3cc(N)ccc3o2)c(C)c1", "max dye-equivalent concentration": "inconclusive: 1.1 nM"}
{"smiles": "CC(=O)S[C@@H]1CC2=CC(=O)CC[C@@]2(C)[C@H]2CC[C@]3(C)[C@H](CC[C@@]34CCC(=O)O4)[C@H]12", "max dye-equivalent concentration": "inconclusive: 1.1 nM"}
{"smiles": "COc1ccc(C2N=C(Nc3ccc(C)cc3)Nc3nc(C)cc(=O)n32)cc1", "note": "(centres undefined)", "max dye-equivalent concentration": "inconclusive: 1.1 nM"}
{"smiles": "COc1ccc(C2CC(=O)c3c([nH]c(C(=O)OC(C)C)c3C)C2)cc1OC", "note": "(centres undefined)", "max dye-equivalent concentration": "inconclusive: 1.2 nM"}
{"smiles": "O=C(CSc1nnnn1Cc1ccccc1)Nc1ccc2c(c1)OCO2", "max dye-equivalent concentration": "inconclusive: 1.2 nM"}
{"smiles": "Cc1c(N)c(=O)n(-c2ccccc2)n1C", "max dye-equivalent concentration": "inconclusive: 1.3 nM"}
{"smiles": "CC(C)N1CC=C2C(C#N)=C(N)C(C#N)(C#N)C(c3ccccc3)C2C1", "note": "(centres undefined)", "max dye-equivalent concentration": "inactive"}
{"smiles": "CN1C(=O)c2ccccc2C(C(=O)NCCCN2CCCC2=O)C1c1c[nH]c2ccccc12", "note": "(centres undefined)", "max dye-equivalent concentration": "inconclusive: 1.4 nM"}
{"smiles": "COc1cc(-c2cc(=O)c3ccccc3o2)ccc1O", "max dye-equivalent concentration": "inconclusive: 1.2 nM"}
{"smiles": "Cc1ccc(C2c3c(-c4ccccc4O)n[nH]c3C(=O)N2Cc2ccncc2)cc1", "note": "(centres undefined)", "max dye-equivalent concentration": "inconclusive: 1.4 nM"}
{"smiles": "Cc1cc(C)n2nc(SCc3cc(=O)n4ccccc4n3)nc2n1", "max dye-equivalent concentration": "inconclusive: 2.2 nM"}
{"smiles": "C=CCn1c(SCC(=O)NCc2ccccc2)nnc1-c1ccccc1O", "max dye-equivalent concentration": "inconclusive: 1.7 nM"}
{"smiles": "O=C(c1cc(S(=O)(=O)N2CCOCC2)ccc1F)N1CCCc2ccccc21", "max dye-equivalent concentration": "inconclusive: 2.5 nM"}
{"smiles": "COc1ccc2cc(C(c3nnnn3C3CCCC3)N3CCc4ccccc4C3)c(=O)[nH]c2c1", "note": "(centres undefined)", "max dye-equivalent concentration": "inconclusive: 1.3 nM"}
{"smiles": "CCOc1cc(S(=O)(=O)NCc2ccccc2)ccc1F", "max dye-equivalent concentration": "inconclusive: 2 nM"}
{"smiles": "COCCNCC(=O)NC12CC3CC(CC(C3)C1)C2", "max dye-equivalent concentration": "inconclusive: 1.7 nM"}
{"smiles": "CCOC(=O)N1CCN(C(=O)c2ccc(N3CCCC3=O)cc2)CC1", "max dye-equivalent concentration": "inconclusive: 1.8 nM"}
{"smiles": "CCn1nnc(NC(=O)c2cccnc2)n1", "max dye-equivalent concentration": "inconclusive: 1.3 nM"}
{"smiles": "CCOCCOC(=O)C1=C(C)N(C)C(=O)NC1c1ccccc1F", "note": "(centres undefined)", "max dye-equivalent concentration": "inactive"}
{"smiles": "COc1ccc(-c2nnc(SCc3ccccc3)n2N)cc1", "max dye-equivalent concentration": "inconclusive: 1.1 nM"}
{"smiles": "O=C(c1cc2ccccc2oc1=O)N(Cc1ccco1)CC1CCCO1", "note": "(centres undefined)", "max dye-equivalent concentration": "inconclusive: 1.3 nM"}
{"smiles": "Cc1[nH]c2ccccc2c1C(=O)CN1CCCC1", "max dye-equivalent concentration": "inconclusive: 2.7 nM"}
{"smiles": "COc1cc(-c2noc(CCCC(=O)NCc3ccco3)n2)cc(OC)c1OC", "max dye-equivalent concentration": "inconclusive: 1.2 nM"}
